The values that follow come from paper doi:10.1101/2023.09.28.559965.

This experiment has as its target HER2 with eGFP tag, doxycycline-induced in MCF10A-Teti-HER2_GFP cells, P04626. Kind of experiment: co-IP. The note with it: remark: other sources report otherwise.

No constants are given. Whether binding was seen depends on the method and setting. In cells and extracts the contact can be indirect.

B1: β-catenin, P35222 1-781 (protein)
chain: MATQADLMELDMAMEPDRKAAVSHWQQQSYLDSGIHSGATTTAPSLSGKGNPEEEDVDTSQVLYEWEQGFSQSFTQEQVADIDGQYAMTRAQRVRAAMFPETLDEGMQIPSTQFDAAHPTNVQRLAEPSQMLKHAVVNLINYQDDAELATRAIPELTKLLNDEDQVVVNKAAVMVHQLSKKEASRHAIMRSPQMVSAIVRTMQNTNDVETARCTAGTLHNLSHHREGLLAIFKSGGIPALVKMLGSPVDSVLFYAITTLHNLLLHQEGAKMAVRLAGGLQKMVALLNKTNVKFLAITTDCLQILAYGNQESKLIILASGGPQALVNIMRTYTYEKLLWTTSRVLKVLSVCSSNKPAIVEAGGMQALGLHLTDPSQRLVQNCLWTLRNLSDAATKQEGMEGLLGTLVQLLGSDDINVVTCAAGILSNLTCNNYKNKMMVCQVGGIEALVRTVLRAGDREDITEPAICALRHLTSRHQEAEMAQNAVRLHYGLPVVVKLLHPPSHWPLIKATVGLIRNLALCPANHAPLREQGAIPRLVQLLVRAHQDTQRRTSMGGTQQQFVEGVRMEEIVEGCTGALHILARDVHNRIVIRGLNTIPLFVQLLYSPIENIQRVAAGVLCELAQDKEAAEAIEAEGATAPLTELLHSRNEGVATYAAAVLFRMSEDKPQDYKKRLSVELTSSLFRTEPMAWNETADLGLDIGAQGEPLGYRQDDPSYRSFHSGGYGQDALGMDPMMEHEMGGHHPGADYPVDGLPDLGHAQDLMDGLPPGDSNQLAWFDTDL
With B1, the binding entry is “no binding”.
